Measured values taken from PubChem BioAssay AID493014 (National Center for Advancing Translational Sciences (NCATS), 2011).
About 170 (0.05%) of roughly 340,000 compounds were called active. Inconclusive results, whose numbers are uncertain, are shown with a selection of clear calls. The call rests on the fitted dose curve; in most records, active means well fitted inhibition curve with a large enough effect in the signal ratio, with a control signal flat (not every such curve was filed as active); inconclusive means small, poorly fitted or top-dose-only effect, or effect the other way, or a change in a side signal; inactive means flat fitted curve, though single readings scatter; the % refers to the signal ratio. Where the call is inconclusive, the potency comes from a doubtful curve fit.

Test: qHTS Assay to Find Inhibitors of Chronic Active B-Cell Receptor Signaling;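 on activity change, negative = inhibition: plate controls were basal doxycycline-induced cells for no effect and cells given 10 µM MG132 for full effect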
Settings: ABC-DLBCL IkBa-CBG/CBR reporter, luminescence ratio (green luciferase fused to IkBa over red control in TMD8 lymphoma cells), 4 h; activity change, negative = inhibition: at 46.1 µM (top of the series) unless noted
Summary of the method: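 TMD8 human ABC-DLBCL cells with doxycycline-inducible IκBα–green luciferase fusion and unfused red luciferase, in 0.5% FBS medium; compounds up to 46 uM, 4 h at 37C. Green/red luminescence ratio, filter-overlap corrected, fitted to concentration-response curves.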
Potency means the concentration at half of the fitted maximal effect.

Compound	activity change, negative = inhibition	Potency
CCOC(=O)NC(=O)/C(C#N)=N/Nc1ccc(F)cc1	inconclusive: 1.35%	
O=C(CCc1ccccc1)Nc1ccc(S(=O)(=O)N2CCOCC2)cc1	inconclusive: -1.02%	
CSc1ncccc1C(=O)OCC(=O)N1CCN(C(=O)c2ccco2)CC1	inconclusive: 2.96%	
COC(=O)c1cc(-c2ccccc2)sc1NC(=O)c1cc(C)on1	inconclusive: -6.91%	
CN(Cc1ccccc1)C(=O)CSc1n[nH]c(N)n1	inconclusive: 6.47%	
CCOC(=O)c1sc(=NC(=O)c2ccc(Cl)s2)n(C)c1C		inconclusive: 1.26 µM [falling, full curve]
COc1ccccc1N1CCN(C(=O)c2ccc(Br)s2)CC1	inconclusive: 0.0064%	
Cc1[nH]n(-c2ccccc2)c(=O)c1C=Nc1ccc(S(=O)(=O)NC(N)=O)cc1	inconclusive: 13%	
O=S(=O)(Cc1ccccc1Cl)N1CCCCC1	inconclusive: 5.86%	
Cc1cc(C)n(CCN(C)Cc2cn[nH]c2-c2ccc(F)cc2F)n1	inconclusive: -4.06%	
CC(=O)N(Cc1cc(=O)[nH]c2ccccc12)c1cccc(C)c1		inconclusive: 14.1 µM [falling, partial curve, poor fit]
CCOC(=O)N1CCC(N2CCCC(C(=O)c3cc(C)c(OC)c(C)c3)C2)CC1 (configuration not stated)	inactive: -13.5%	
O=C(NC(=O)c1ccccc1)OCCN1C(=O)c2ccccc2C1=O	inactive: -0.224%	
O=C(Nc1ccc(C(F)(F)F)cc1)C1CCCN1S(=O)(=O)c1cccc2cccnc12 (configuration not stated)	inconclusive: -17.3%	
COc1ccc(-c2sc(Nc3ccccc3)n[n+]2-c2ccccc2)cc1Br		inconclusive: 20.6 µM [falling, single point]
CCN1CCN(C(=O)c2ccc3c(c2)N(Cc2cccc(Cl)c2)C(=O)c2ccccc2S3(=O)=O)CC1	inconclusive: 1.18%	
C/C(CC(=O)Nc1ccc2ccccc2c1)=N\NC(=O)c1cnccn1		inconclusive: 29.1 µM [falling, single point]
CNC(=S)N1CCN(c2c(F)cc3c(=O)c(C(=O)O)cn(C4CC4)c3c2OC)CC1C (configuration not stated)	inconclusive: 13.4%	
CC1CCC(NC(=O)c2ccc3c(c2)N(Cc2cccc(F)c2)C(=O)c2ccccc2S3)CC1 (configuration not stated)	inactive: -21.4%	
O=C(NNC(=S)NC(=O)C12CC3CC(CC(C3)C1)C2)c1ccncc1	inactive: -6.8%	
COc1ccc(C)cc1NC(=O)C(Sc1nnc(Nc2cc(C)ccc2OC)s1)c1ccccc1 (configuration not stated)	inactive: 1.43%	
Cc1ccc(NS(=O)(=O)c2ccc(NC(=O)C3CCCO3)cc2)cc1 (configuration not stated)	inconclusive: -0.54%	
COC(=O)/C(=C\c1cc(OC)c(OC)c(OC)c1)c1nc2ccccc2[nH]1		inconclusive: 6.31 µM [falling, single point]
Clc1ccc(-c2nc3ccncc3[nH]2)cc1	inconclusive: -1.73%	
c1ccc(CNc2nc(NCc3ccccc3)c3ccccc3n2)cc1	inconclusive: 21.2%	
CCOC(=O)c1c(N)sc(C(=O)Nc2ccc3c(c2)OCO3)c1C		inconclusive: 25.9 µM [falling, single point]

Compound	activity change, negative = inhibition	Potency
Cc1cccc(NC(=O)C2CCN(C(=O)[C@@H]3Cc4ccccc4CN3)CC2)c1		inconclusive: 12.6 µM [falling, single point]
COc1ccc(NC(=O)NN(C(=O)c2ccccc2)C(C)(C)C)cc1	inactive: 1.96%	
C/C(=N\OCC(=O)Nc1ccccc1C(=O)O)c1cccs1	inconclusive: 380%	
COc1ccc(C(=O)Nc2cccc(/C=C/c3nc4ccccc4c(=O)[nH]3)c2)cc1	inconclusive: -0.426%	
CCOC(=O)c1sc(NC(=O)C(CC)OC(=O)c2ccco2)nc1C (configuration not stated)	inconclusive: -18.5%	
O=C(c1cc2ccccc2o1)N(Cc1nnc(-c2ccccc2Cl)o1)C1CC1	inconclusive: -0.44%	
CCc1cccc(NC(=O)CSC2=NS(=O)(=O)c3ccccc32)c1		inconclusive: 0.116 µM [falling, full curve, poor fit]
Cc1[nH]c2ccccc2c1C(O)CN1CCC2(CC1)OCCO2 (configuration not stated)		inconclusive: 28.2 µM [falling, single point]
CCOC(=O)C1=C(COC(=O)c2ccc([N+](=O)[O-])o2)NC(=O)NC1C (configuration not stated)	inconclusive: 5.46%	
Cc1cc(OCC(=O)c2ccc(Br)cc2)ccc1N1C(=O)CCC1=O	inconclusive: 3.92%	
CCN(CC)S(=O)(=O)c1ccccc1/C=N\O	inconclusive: 14.1%	
NC(=O)COC(=O)c1c2c(nc3ccccc13)CCCC2	inactive: 1.13%	
O=C(Nc1ccc(Cl)cc1)C1C2CCCCC21 (configuration not stated)	inactive: 1.82%	
O=C(Nc1nsc(-c2ccccc2)n1)c1ccc(F)cc1		inconclusive: 3.98 µM [falling, partial curve]
N#Cc1c(NC(=O)/C=C/c2ccco2)sc2c1CCCC2		inconclusive: 1.03 µM [falling, full curve, poor fit]
Cc1cc(OCCN2CCOCC2)nc2ccccc12	inconclusive: 12.3%	
Cc1ccccc1C(=O)Oc1ccc(Sc2ccc(O)cc2)cc1	inconclusive: -8.5%	
Cc1noc(C)c1CSc1nnnn1-c1ccc(Cl)cc1	inconclusive: -0.372%	
CCn1cc(CN2CCC(C(=O)Nc3cccc(-c4cccc(Cl)c4)c3)CC2)c(C)n1	inconclusive: -15.6%	
COc1cccc(-c2cc(-c3cccnc3)c(C#N)c(N)n2)c1	inconclusive: -0.999%	
O=C(Nc1cccc(C(F)(F)F)c1)c1csc(-c2ccncc2)n1	inactive: 6.35%	
COC(=O)[C@H](C)NC(=O)c1cc2c(cn1)[nH]c1ccccc12		inconclusive: 35.5 µM [falling, partial curve, poor fit]
O=C(NC1CCCCC1)c1cc(C2CC2)nn1-c1ccccc1	inconclusive: 1.71%	
CCC1(c2ccc(C)cc2)NC(=O)N(CC(=O)Nc2cccc(S(=O)(=O)N3CCCC3)c2)C1=O (configuration not stated)	inconclusive: 19.6%	
Cc1ccccc1OCC(=O)OCC(=O)Nc1ncc(Cl)c(C)c1Cl	inactive: -4.7%	
CC(=O)Nc1ccc(NC(=O)Nc2ccc(C)cc2C)cc1	inconclusive: 8.74%	

Looked up above.
Under Potency, C/C(CC(=O)Nc1ccc2ccccc2c1)=N\NC(=O)c1cnccn1 is listed with inconclusive: 29.1 µM [falling, single point]
Under activity change, negative = inhibition, CC1CCC(NC(=O)c2ccc3c(c2)N(Cc2cccc(F)c2)C(=O)c2ccccc2S3)CC1 (configuration not stated) is listed with inactive: -21.4%
Under activity change, negative = inhibition, Cc1ccccc1C(=O)Oc1ccc(Sc2ccc(O)cc2)cc1 is listed with inconclusive: -8.5%
Under activity change, negative = inhibition, O=C(NNC(=S)NC(=O)C12CC3CC(CC(C3)C1)C2)c1ccncc1 is listed with inactive: -6.8%
